Reference: publication PMC4550699
These are yes or no findings as the source states them, for the method shown. For some assays here: Binding seen in cells or lysates may run through a third protein. Sequences can lack the tags named with a protein.

Protein sequences, listed by entry. Tags and fused reporters are not part of them. Lines headed by an entry give the natural chain unless they say otherwise; changes in a name come on top.
UniProt Q9ZW35: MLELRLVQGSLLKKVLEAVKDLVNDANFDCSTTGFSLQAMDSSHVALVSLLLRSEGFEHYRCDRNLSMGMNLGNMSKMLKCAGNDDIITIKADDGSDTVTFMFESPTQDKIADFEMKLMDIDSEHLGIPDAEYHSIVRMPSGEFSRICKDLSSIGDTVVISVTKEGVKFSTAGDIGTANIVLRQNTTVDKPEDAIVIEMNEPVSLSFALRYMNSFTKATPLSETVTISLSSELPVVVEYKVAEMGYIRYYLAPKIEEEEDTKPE
UniProt Q9M7Q7: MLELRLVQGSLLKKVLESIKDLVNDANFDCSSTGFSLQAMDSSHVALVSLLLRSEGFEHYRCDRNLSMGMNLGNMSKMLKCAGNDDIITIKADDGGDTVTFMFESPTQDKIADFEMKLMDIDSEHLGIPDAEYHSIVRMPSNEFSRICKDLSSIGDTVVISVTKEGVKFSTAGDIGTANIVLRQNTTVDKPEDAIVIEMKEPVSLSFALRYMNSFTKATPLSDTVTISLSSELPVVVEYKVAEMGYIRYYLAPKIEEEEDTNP

Assays:
[1] = target: PCNA2 (Proliferating Cell Nuclear Antigen 2), split-ubiquitin Y2H fusion (Arabidopsis thaliana) (UniProt Q9ZW35); test: two-hybrid; split-ubiquitin Y2H (MoBiTec transactivating starter kit), yeast NMY51, bait in pDHB1Gateway, prey in pPR3-NGateway; growth on SC-Leu-Trp-His with 10 mM 3-AT and X-gal filter assay; both orientations tested, the target of a row is the bait
[2] = target: PCNA1 (Proliferating Cell Nuclear Antigen 1), split-ubiquitin Y2H fusion (Arabidopsis thaliana) (UniProt Q9M7Q7); test: as above
[3] = target: PCNA2_CtermGFP (Arabidopsis thaliana) (UniProt Q9ZW35); test: split reporter; BiFC (split GFP) in N. benthamiana leaf cells, transient co-expression with p19, confocal microscopy; CycD_NtermGFP with PCNA_CtermGFP (Figure 2), one of four combinations analysed
[4] = target: PCNA1_CtermGFP (Arabidopsis thaliana) (UniProt Q9M7Q7); test: as above
[5] = target: PCNA1_RFP (Arabidopsis thaliana) (UniProt Q9M7Q7); test: condition: FRET efficiency 1.13%; threshold 1.19%; FRET or BRET; FLIM-FRET in nuclei of transiently transformed N. benthamiana leaf cells; donor GFP fusion, acceptor RFP fusion; E = (1 - tauDA/tauD) x 100%; FRET efficiency of free GFP/RFP (1.19%) used as threshold
[6] = target: RFP_PCNA1 (Arabidopsis thaliana) (UniProt Q9M7Q7); test: condition: FRET efficiency 0.42%; threshold 1.19%; FRET or BRET; FLIM-FRET in nuclei of transiently transformed N. benthamiana leaf cells; donor GFP fusion, acceptor RFP fusion; E = (1 - tauDA/tauD) x 100%; FRET efficiency of free GFP/RFP (1.19%) used as threshold
[7] = target: RFP_PCNA2 (Arabidopsis thaliana) (UniProt Q9ZW35); test: condition: FRET efficiency 0.84%; threshold 1.19%; FRET or BRET; FLIM-FRET in nuclei of transiently transformed N. benthamiana leaf cells; donor GFP fusion, acceptor RFP fusion; E = (1 - tauDA/tauD) x 100%; FRET efficiency of free GFP/RFP (1.19%) used as threshold
[8] = target: PCNA2_RFP (Arabidopsis thaliana) (UniProt Q9ZW35); test: condition: FRET efficiency 0.08%; threshold 1.19%; FRET or BRET; FLIM-FRET in nuclei of transiently transformed N. benthamiana leaf cells; donor GFP fusion, acceptor RFP fusion; E = (1 - tauDA/tauD) x 100%; FRET efficiency of free GFP/RFP (1.19%) used as threshold
[9] = target: RFP_PCNA2 (Arabidopsis thaliana) (UniProt Q9ZW35); test: condition: FRET efficiency 0.41%; threshold 1.19%; FRET or BRET; FLIM-FRET in nuclei of transiently transformed N. benthamiana leaf cells; donor GFP fusion, acceptor RFP fusion; E = (1 - tauDA/tauD) x 100%; FRET efficiency of free GFP/RFP (1.19%) used as threshold
[10] = target: RFP_PCNA1 (Arabidopsis thaliana) (UniProt Q9M7Q7); test: as above
[11] = target: PCNA2_RFP (Arabidopsis thaliana) (UniProt Q9ZW35); test: condition: FRET efficiency 0.87%; threshold 1.19%; FRET or BRET; FLIM-FRET in nuclei of transiently transformed N. benthamiana leaf cells; donor GFP fusion, acceptor RFP fusion; E = (1 - tauDA/tauD) x 100%; FRET efficiency of free GFP/RFP (1.19%) used as threshold
[12] = target: PCNA1_RFP (Arabidopsis thaliana) (UniProt Q9M7Q7); test: condition: FRET efficiency 1.75%; threshold 1.19%; FRET or BRET; FLIM-FRET in nuclei of transiently transformed N. benthamiana leaf cells; donor GFP fusion, acceptor RFP fusion; E = (1 - tauDA/tauD) x 100%; FRET efficiency of free GFP/RFP (1.19%) used as threshold

B1: CycD3;1, split-ubiquitin Y2H fusion (protein, UniProt P42753 1-376)
chain: MAIRKEEESREEQSNSFLLDALYCEEEKWDDEGEEVEENSSLSSSSSPFVVLQQDLFWEDEDLVTLFSKEEEQGLSCLDDVYLSTDRKEAVGWILRVNAHYGFSTLAAVLAITYLDKFICSYSLQRDKPWMLQLVSVACLSLAAKVEETQVPLLLDFQVEETKYVFEAKTIQRMELLILSTLEWKMHLITPISFVDHIIRRLGLKNNAHWDFLNKCHRLLLSVISDSRFVGYLPSVVAAATMMRIIEQVDPFDPLSYQTNLLGVLNLTKEKVKTCYDLILQLPVDRIGLQIQIQSSKKRKSHDSSSSLNSPSCVIDANPFNSDESSNDSWSASSCNPPTSSSSPQQQPPLKKMRGAEENEKKKPILHLPWAIVATP
[1]
  binding: no binding
[2]
  binding: no binding

B2: CycD3;3, split-ubiquitin Y2H fusion (protein, UniProt Q9SN11 1-361)
chain: MALEEEEESQNAPFCVLDGLFCEEESEFHEQVDLCDESVEKFPFLNLGLSDHDMLWDDDELSTLISKQEPCLYDEILDDEFLVLCREKALDWIFKVKSHYGFNSLTALLAVNYFDRFITSRKFQTDKPWMSQLTALACLSLAAKVEEIRVPFLLDFQVEEARYVFEAKTIQRMELLVLSTLDWRMHPVTPISFFDHIIRRYSFKSHHQLEFLSRCESLLLSIIPDSRFLSFSPSVLATAIMVSVIRDLKMCDEAVYQSQLMTLLKVDSEKVNKCYELVLDHSPSKKRMMNWMQQPASPIGVFDASFSSDSSNESWVVSASASVSSSPSSEPLLKRRRVQEQQMRLSSINRMFFDVLSSSPR
[1]
  binding: no binding
[2]
  binding: no binding

B3: CycD1;1_NtermGFP (protein, UniProt P42751 1-339)
chain: MRSYRFSDYLHMSVSFSNDMDLFCGEDSGVFSGESTVDFSSSEVDSWPGDSIACFIEDERHFVPGHDYLSRFQTRSLDASAREDSVAWILKVQAYYNFQPLTAYLAVNYMDRFLYARRLPETSGWPMQLLAVACLSLAAKMEEILVPSLFDFQVAGVKYLFEAKTIKRMELLVLSVLDWRLRSVTPFDFISFFAYKIDPSGTFLGFFISHATEIILSNIKEASFLEYWPSSIAAAAILCVANELPSLSSVVNPHESPETWCDGLSKEKIVRCYRLMKAMAIENNRLNTPKVIAKLRVSVRASSTLTRPSDESSFSSSSPCKRRKLSGYSWVGDETSTSN
[3]
  binding: no binding
[4]
  binding: no binding

B4: CycD3;1_NtermGFP (protein, UniProt P42753 1-376)
chain: B1 chain
[3]
  binding: no binding
[4]
  binding: no binding

B5: CycD1;1, split-ubiquitin Y2H fusion (protein, UniProt P42751 1-339)
chain: B3 chain
[1]
  binding: no binding
[2]
  binding: no binding

B6: CycD3;3_NtermGFP (protein, UniProt Q9SN11 1-361)
chain: B2 chain
[3]
  binding: no binding
[4]
  binding: no binding

B7: CycD1;1_GFP (protein, UniProt P42751 1-339)
chain: B3 chain
[5]
  binding: no binding
[6]
  binding: no binding
[7]
  binding: no binding
[8]
  binding: no binding

B8: CycD3;1_GFP (protein, UniProt P42753 1-376)
chain: B1 chain
[9]
  binding: no binding
[10]
  binding: no binding
[11]
  binding: no binding
[12]
  binding: no binding
